Source: publication PMC11702208 (RSC Advances, 2025)

System: SK-OV-3
Assay: NCI cytotoxicity screen
Assay type: cell-based
Conditions: Homo sapiens

For `COc1cc2ncnc(Nc3ccc(F)c(Cl)c3)c2cc1OCCCN1CCOCC1` [Gefitinib, reference compound], which GI50 is on record?
The GI50 was 630 nM.
